PubChem BioAssay AID1224826 – NIAID, 2016
This is a random part of about 17,000 reagents. About 1,110 of them (6.6%) count as active. 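Active means lowered or raised reporter signal; replicate intensities are raw and not normalised per plate.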

Assay: 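Regulators of Tlr4 signalling leading to Tnf-alpha expression in macrophages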 (primary screen)
Cell system: RAW264.7 G9 macrophages from mouse bearing reporters for p65 (GFP) and the Tnf promoter (mCherry)
Reagents: siRNA pool against mouse genes, 100 nM
Timing: 16 h of LPS stimulation, after 2 days of siRNA transfection
Treatment: bacterial lipopolysaccharide (Salmonella minnesota R595), 10 ng/ml
Measured: 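Imaged Tnf reporter mCherry in nuclei, minus background, normalised per plate to the median and expressed as robust z-scores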
Scale: Tnf reporter robust z-score: higher = stronger Tnf promoter reporter signal after LPS; Tnf reporter intensity: higher = stronger Tnf promoter reporter signal
Call rule: 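a well counts as active at a score of -1.3 or below (Tlr4 knock-down control median) or above 3 (raised signal); controls and wells holding fewer than 50 cells are excluded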
Calls: active = Tnf reporter clearly lowered or raised; inactive = no clear change in Tnf reporter

no.	target	Tnf reporter robust z-score	fewer than 50 cells in well	Tnf reporter intensity, replicate 1	Tnf reporter intensity, replicate 2	Call
1	Tbc1d16 (TBC1 domain family, member 16)	-0.36	enough cells in well	196	165	inactive
2	Trim24 (tripartite motif-containing 24)	-0.31	enough cells in well	203	210	inactive
3	Med20 (mediator complex subunit 20)	-0.5	enough cells in well	104	70	inactive
4	Slc26a7	-0.62	enough cells in well	90.3	68.7	inactive
5	Banf1 (BAF nuclear assembly factor 1)	-0.23	enough cells in well	183	200	inactive
6	Vwa3b (von Willebrand factor A domain containing 3B)	0.07	enough cells in well	204	125	inactive
7	Hhex (hematopoietically expressed homeobox)	0.91	enough cells in well	303	253	inactive
8	Abi1 (abl interactor 1)	0.24	enough cells in well	214	168	inactive
9	Hsp90aa1 (heat shock protein 90, alpha (cytosolic), class A member 1)	1.11	enough cells in well	309	274	inactive
10	Slc22a12	1.95	enough cells in well	353	243	inactive
11	Mon1a (MON1 homolog A, secretory traffciking associated)		fewer than 50 cells per well; well left out of calls	172	22.2	inactive
12	Cops7b (COP9 signalosome subunit 7B)	0.88	enough cells in well	255	212	inactive
13	Gm5069 (predicted pseudogene 5069)	0.38	enough cells in well	216	164	inactive
14	Slc25a20	-0.21	enough cells in well	170	154	inactive
15	Ttbk2 (tau tubulin kinase 2)	-1.84	enough cells in well	71.3	56.2	active
16	Mcpt4 (mast cell protease 4)	-0.48	enough cells in well	161	49.3	inactive
17	Mstn (myostatin)	-0.82	enough cells in well	187	169	inactive
18	Tmem125 (transmembrane protein 125)		fewer than 50 cells per well; well left out of calls	110	73.9	inactive
19	Strn3 (striatin, calmodulin binding protein 3)	3.58	enough cells in well	222	218	active
20	1700018B08Rik (RIKEN cDNA 1700018B08 gene)	-0.13	enough cells in well	204	80.2	inactive
21	Dnm3 (dynamin 3)	0.07	enough cells in well	199	177	inactive
22	Sdhc	-0.27	enough cells in well	245	203	inactive
23	Lysmd1 (LysM, putative peptidoglycan-binding, domain containing 1)	-0.6	enough cells in well	202	55.8	inactive
24	Gpr6 (G protein-coupled receptor 6)	-0.09	enough cells in well	183	331	inactive
25	Ylpm1 (YLP motif containing 1)	1.38	enough cells in well	142	189	inactive
26	Pfn1 (profilin 1)	0.49	enough cells in well	271	220	inactive
27	Mfsd8 (major facilitator superfamily domain containing 8)	0.72	enough cells in well	203	84.6	inactive
28	Rasgrf2 (RAS protein-specific guanine nucleotide-releasing factor 2)	2.13	enough cells in well	336	277	inactive
29	Gdap2 (ganglioside-induced differentiation-associated-protein 2)	-0.29	enough cells in well	221	125	inactive
30	Mindy3 (MINDY lysine 48 deubiquitinase 3)		fewer than 50 cells per well; well left out of calls	179	58.4	inactive
31	Ddx1 (DEAD box helicase 1)	0.89	enough cells in well	298	166	inactive
32	Grpel2 (GrpE-like 2, mitochondrial)	4.15	enough cells in well	585	397	active
33	Cep85 (centrosomal protein 85)	0.16	enough cells in well	288	66.3	inactive
34	Atxn2l (ataxin 2-like)	1.5	enough cells in well	268	220	inactive
35	Wbp2 (WW domain binding protein 2)	0.23	enough cells in well	310	222	inactive
36	Asf1a (anti-silencing function 1A histone chaperone)	-0.59	enough cells in well	111	125	inactive
37	Alkbh7 (alkB homolog 7)		fewer than 50 cells per well; well left out of calls	83	29.3	inactive
38	Plce1 (phospholipase C, epsilon 1)	0.05	enough cells in well	131	132	inactive
39	Klf3 (Kruppel-like transcription factor 3 (basic))	-0.76	enough cells in well	177	112	inactive
40	Dbpht1 (retired record)	-1.12	enough cells in well	161	64.2	inactive
41	Rcor2 (REST corepressor 2)	2.21	enough cells in well	226	221	inactive
42	Ogn (osteoglycin)	1.57	enough cells in well	308	213	inactive
43	Ttc7 (tetratricopeptide repeat domain 7)		fewer than 50 cells per well; well left out of calls	81.3	75.6	inactive
44	Aldoc (aldolase C, fructose-bisphosphate)	-0.68	enough cells in well	160	95.8	inactive
45	Or6c212 (olfactory receptor family 6 subfamily C member 212)	-1.43	enough cells in well	54.8	57.9	active
46	Klf4 (Kruppel-like transcription factor 4 (gut))	-0.24	enough cells in well	241	123	inactive
47	Pax9 (paired box 9)	-0.1	enough cells in well	219	187	inactive
48	Pde1b (phosphodiesterase 1B, Ca2+-calmodulin dependent)	-0.46	enough cells in well	197	159	inactive
49	Nlrp5 (NLR family, pyrin domain containing 5)	-0.79	enough cells in well	162	68.1	inactive
50	Ap2a2 (adaptor-related protein complex 2, alpha 2 subunit)	-0.69	enough cells in well	164	138	inactive
51	Ctnnb1 (catenin beta 1)	0.21	enough cells in well	303	184	inactive
52	Hivep1	1.41	enough cells in well	371	260	inactive
53	Crabp1 (cellular retinoic acid binding protein I)	0.24	enough cells in well	189	202	inactive
54	Mllt3	3.59	enough cells in well	379	302	active
55	Slc7a10	-1.35	enough cells in well	60.8	32.4	active
56	Zbtb14 (zinc finger and BTB domain containing 14)	0.06	enough cells in well	204	270	inactive
57	Bcas3 (BCAS3 microtubule associated cell migration factor)		fewer than 50 cells per well; well left out of calls	10.4	219	inactive
58	Zfp59 (zinc finger protein 59)		fewer than 50 cells per well; well left out of calls	40.1	88.1	inactive
59	Ahi1 (Abelson helper integration site 1)	-0.09	enough cells in well	205	176	inactive
60	Slc16a9	-1.52	enough cells in well	49.4	49.4	active
61	Spata7 (spermatogenesis associated 7)	-1	enough cells in well	125	135	inactive
62	Rbbp8 (retinoblastoma binding protein 8, endonuclease)	0.36	enough cells in well	201	151	inactive
63	Or11a4 (olfactory receptor family 11 subfamily A member 4)	2.95	enough cells in well	243	314	inactive
64	Agmo (alkylglycerol monooxygenase)	-0.5	enough cells in well	119	152	inactive
65	Ppic (peptidylprolyl isomerase C)	0	enough cells in well	205	125	inactive
66	Farsb (phenylalanyl-tRNA synthetase, beta subunit)	-1.31	enough cells in well	144	72.6	active
67	Or8b46 (olfactory receptor family 8 subfamily B member 46)	1.6	enough cells in well	202	228	inactive
68	Sh2d2a (SH2 domain containing 2A)	0.82	enough cells in well	360	271	inactive
69	Dppa5a (developmental pluripotency associated 5A)	1.58	enough cells in well	251	199	inactive
70	Kif21a (kinesin family member 21A)	-1.21	enough cells in well	120	73.9	inactive
71	Pcdhgb2 (protocadherin gamma subfamily B, 2)	1.48	enough cells in well	188	230	inactive
72	Fbxo2 (F-box protein 2)	-0.04	enough cells in well	245	206	inactive
73	Adig (adipogenin)	-0.68	enough cells in well	86.4	126	inactive
74	Cox7a2 (cytochrome c oxidase subunit 7A2)	0.35	enough cells in well	180	225	inactive
75	Chp1 (calcineurin-like EF hand protein 1)	0.08	enough cells in well	227	90.9	inactive

A stretch of the results above, as a working copy:
no.	target	Tnf reporter robust z-score	fewer than 50 cells in well	Tnf reporter intensity, replicate 1	Tnf reporter intensity, replicate 2	Call
21	Dnm3 (dynamin 3)	0.07	enough cells in well	199	177	inactive
22	Sdhc	-0.27	enough cells in well	245	203	inactive
23	Lysmd1 (LysM, putative peptidoglycan-binding, domain containing 1)	-0.6	enough cells in well	202	55.8	inactive
24	Gpr6 (G protein-coupled receptor 6)	-0.09	enough cells in well	183	331	inactive
25	Ylpm1 (YLP motif containing 1)	1.38	enough cells in well	142	189	inactive
26	Pfn1 (profilin 1)	0.49	enough cells in well	271	220	inactive
27	Mfsd8 (major facilitator superfamily domain containing 8)	0.72	enough cells in well	203	84.6	inactive
28	Rasgrf2 (RAS protein-specific guanine nucleotide-releasing factor 2)	2.13	enough cells in well	336	277	inactive
29	Gdap2 (ganglioside-induced differentiation-associated-protein 2)	-0.29	enough cells in well	221	125	inactive
30	Mindy3 (MINDY lysine 48 deubiquitinase 3)		fewer than 50 cells per well; well left out of calls	179	58.4	inactive
